{"sequences": {"note": "Amino acid sequences for entries named in this document (tags omitted). A change or cut given only in a name is not applied to a line headed by its entry.", "UniProt P03496": "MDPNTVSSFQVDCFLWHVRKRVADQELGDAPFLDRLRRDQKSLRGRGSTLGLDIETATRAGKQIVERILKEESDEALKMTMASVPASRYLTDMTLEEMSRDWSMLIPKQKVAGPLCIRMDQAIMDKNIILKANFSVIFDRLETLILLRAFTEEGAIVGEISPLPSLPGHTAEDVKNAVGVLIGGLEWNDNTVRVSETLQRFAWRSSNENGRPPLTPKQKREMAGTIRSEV"}, "source": "paper PMC9321973", "binders": {"B1": {"name": "Myc-tagged 14-3-3γ (protein, UniProt P61981 1-247)", "chain": "MVDREQLVQKARLAEQAERYDDMAAAMKNVTELNEPLSNEERNLLSVAYKNVVGARRSSWRVISSIEQKTSADGNEKKIEMVRAYREKIEKELEAVCQDVLSLLDNYLIKNCSETQYESKVFYLKMKGDYYRYLAEVATGEKRATVVESSEKAYSEAHEISKEHMQPTHPIRLGLALNYSVFYYEIQNAPEQACHLAKTAFDDAIAELDTLNEDSYKDSTLIMQLLRDNLTLWTSDQQDDDGGEGNN"}}, "key": {"[1]": {"biological_target": "3×FLAG-tagged full-length NS1 protein of influenza A virus PR8(H1N1) (influenza virus A/PR8/34 (H1N1)) (UniProt P03496)", "test": "co-IP"}, "[2]": {"biological_target": "3×FLAG-tagged N-terminus-truncated NS1 protein (amino acids 79–230) of influenza A virus PR8(H1N1) (influenza virus A/PR8/34 (H1N1)) (UniProt P03496)", "test": "co-IP"}}, "note": "No constants are given. Whether binding was seen depends on the method and setting. Binding seen in cells or lysates may run through a third protein. Some binding calls cover weakened binding; strength is not graded here. Where a sequence is shown, tags or fusion partners need not be part of it."}
{"binder": "B1", "values": [{"measurement": "binding", "setting": "[1]", "result": "binds"}, {"measurement": "binding", "setting": "[2]", "result": "binds"}]}
